“And” between values parts separate entries of the source, which are not always exact repeats. Identical values can stand only once. The inconclusive results got no clear call from the source; some entries with a clear call stand among them for comparison. For some of these results: Potencies of inconclusive entries are doubtful fits and often do not repeat. For some of these results: A note “side channel” means that the fit belongs to a control or component signal, not to the main read-out. The source made the active and inactive calls. Unless noted, calls follow the shape of the full dose curve.
Experiments:
[1] = Cell Viability - LYMP1-003 - Assay at 40 hr (AID 964; active = well fitted curve in the direction sought with a large enough effect; inconclusive = small, poorly fitted or top-dose-only effect, or another doubt; inactive = no such curve, though single readings can be large; an effect the other way counts as inactive or inconclusive; also: % is scaled to controls: 0 for no effect and ±100 for the full control effect; nearly all actives have a fitted effect of over 60% in size)
Method in brief: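 This qHTS cytotoxicity screen treats human lymphoblastoid cells (LYMP1-003) with compounds for 40 hr and quantifies cellular ATP via luciferase luminescence.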

The chains behind the UniProt entries cited, without tags or fusion partners. Where a name states a change or a piece, a line headed by the entry shows the natural chain unless it says otherwise.
UniProt Q03181: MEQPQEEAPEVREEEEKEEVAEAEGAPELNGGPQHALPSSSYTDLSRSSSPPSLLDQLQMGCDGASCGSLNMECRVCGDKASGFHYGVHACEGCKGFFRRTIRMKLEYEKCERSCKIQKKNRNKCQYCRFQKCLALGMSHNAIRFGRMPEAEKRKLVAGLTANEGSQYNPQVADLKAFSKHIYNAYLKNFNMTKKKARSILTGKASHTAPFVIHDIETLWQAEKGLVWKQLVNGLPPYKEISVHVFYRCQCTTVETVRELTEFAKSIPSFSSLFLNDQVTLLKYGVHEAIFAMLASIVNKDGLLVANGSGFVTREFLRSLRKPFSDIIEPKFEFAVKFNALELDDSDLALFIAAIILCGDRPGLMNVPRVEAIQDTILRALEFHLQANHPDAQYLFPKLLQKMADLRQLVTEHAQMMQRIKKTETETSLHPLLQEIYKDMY
UniProt P19793: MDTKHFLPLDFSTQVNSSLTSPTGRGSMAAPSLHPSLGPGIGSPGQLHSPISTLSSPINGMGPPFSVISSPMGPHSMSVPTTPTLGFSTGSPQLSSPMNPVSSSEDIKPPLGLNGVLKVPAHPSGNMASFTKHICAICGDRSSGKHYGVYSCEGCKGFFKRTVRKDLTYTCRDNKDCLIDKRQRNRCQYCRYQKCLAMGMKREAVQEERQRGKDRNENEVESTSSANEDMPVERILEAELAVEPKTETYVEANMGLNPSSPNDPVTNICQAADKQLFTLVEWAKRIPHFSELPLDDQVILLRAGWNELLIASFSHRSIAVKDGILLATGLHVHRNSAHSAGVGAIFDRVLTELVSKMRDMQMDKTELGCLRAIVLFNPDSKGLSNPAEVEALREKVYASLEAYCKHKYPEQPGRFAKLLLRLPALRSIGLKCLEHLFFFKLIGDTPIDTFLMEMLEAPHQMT

[2] = molecular target: Bile acid receptor (Homo sapiens) (UniProt Q96RI1); assay: qHTS assay for small molecule antagonists of farnesoid X receptor signaling (AID 588526); conditions: HEK293T FXR-UAS-bla, beta-lactamase ratio, antagonist mode; activity change, negative = inhibition: at 76.7 µM (top of the series); also: % is scaled to controls: 0 for no effect and ±100 for the full control effect
Method in brief: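 Beta-lactamase reporter antagonist mode: HEK293T FXR-UAS-bla cells, titrated compound, CDCA stimulation, 16 h 37 C, CCF4 dye 2 h RT. Data normalized to CDCA 50 uM and DMSO; Hill-fit IC50.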

[3] = molecular target: Peroxisome proliferator-activated receptor delta (Homo sapiens) (UniProt Q03181); assay: qHTS assay for small molecule antagonists of peroxisome proliferator-activated receptor delta signaling (AID 588535; active = well fitted inhibition curve with a large enough effect in the signal ratio, with a control signal flat, not every such curve was filed as active; inconclusive = small, poorly fitted or top-dose-only effect, or effect the other way, or a change in a side signal; inactive = no such curve, though single readings can be large or run the other way; the % refers to the signal ratio; also: potency is read from the fitted curve at half-maximal effect); conditions: HEK293T PPARd-UAS-bla, beta-lactamase FRET ratio, 18 h; activity change, negative = inhibition: at 76.7 µM (top of the series) unless noted
Method in brief: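 Cell-based beta-lactamase assay in antagonist mode: 4000 HEK293T PPAR-delta-UAS-bla cells per well, 5 hr preincubation then 18 hr compound incubation at 37 C. IC50 obtained by Hill equation fitting.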

[4] = molecular target: Peroxisome proliferator-activated receptor gamma (Homo sapiens) (UniProt P37231); assay: qHTS assay for small molecule antagonists of peroxisome proliferator-activated receptor gamma signaling (AID 588537; active = well fitted inhibition curve with a large enough effect in the signal ratio, with a control signal flat, not every such curve was filed as active; inconclusive = small, poorly fitted or top-dose-only effect, or effect the other way, or a change in a side signal; the % refers to the signal ratio; also: potency is read from the fitted curve at half-maximal effect;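 as to activity, negative = inhibition: reporter cells co-stimulated with 50 nM rosiglitazone agonist during compound treatment; % of control where 0% means no effect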); conditions: HEK293 PPARg-UAS-bla, beta-lactamase ratio, antagonist mode; activity, negative = inhibition: at 76.8 µM (top of the series)
Method in brief: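 Inhibitors of agonist-stimulated UAS-bla reporter activity were sought in HEK293 cells; rosiglitazone (50 nM) defined full signal and DMSO baseline. Curves fitted to Hill model gave IC50 and efficacy.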

[5] = molecular target: Retinoic acid receptor RXR-alpha (Homo sapiens) (UniProt P19793); assay: qHTS assay for small molecule antagonists of retinoid X receptor alpha signaling (AID 588546; active = well fitted inhibition curve with a large enough effect in the signal ratio, with a control signal flat, not every such curve was filed as active; inconclusive = small, poorly fitted or top-dose-only effect, or effect the other way, or a change in a side signal; inactive = no such curve, though single readings can be large or run the other way; the % refers to the signal ratio;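 also: cells stimulated with 9-cis-retinoic acid as agonist; % is scaled to controls: 0 for no effect and ±100 for the full control effect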); conditions: HEK293T RXRa-UAS-bla, beta-lactamase ratio, antagonist mode
Method in brief: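 Beta-lactamase reporter inhibition, read as CCF4 fluorescence ratio (ex 405, em 460/530 nm) after 2 h at RT. HEK293T UAS-bla cells, 2500/well, were stimulated with 9-cis-RA at 500 or 100 nM final alongside test compound for 18 h at 37 C.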

[6] = qHTS assay for small molecule agonists of the antioxidant response element (ARE) signaling pathway (AID 651741; active = well fitted activation curve with a large enough effect in the signal ratio; inconclusive = small, poorly fitted or top-dose-only effect, or effect the other way, or a change in a side signal; the % refers to the signal ratio; also: potency is read from the fitted curve at half-maximal effect; as to activation: % of control where 0% means no effect); conditions: HepG2 ARE-bla reporter, beta-lactamase FRET ratio, 16 h; activation: at 96 µM (top of the series) unless noted
Method in brief: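 Seeding 2,000 ARE-bla HepG2 cells per well preceded a 5 h incubation at 37 C/5% CO2 and a 16 h compound exposure at 37 C. Beta-lactamase reporter activity was then quantified by fluorescence after 2 h with LiveBLAzer B/G FRET substrate.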

[7] = qHTS assay to identify small molecules that stimulate interleukin-8 (IL-8) secretion (AID 651758; active = well fitted activation curve with a large enough effect in the signal ratio; inconclusive = small, poorly fitted or top-dose-only effect, or effect the other way, or a change in a side signal; the % refers to the signal ratio; also: potency is read from the fitted curve at half-maximal effect; as to activation: 0% is about no effect); conditions: HTRF ratio (665/615); activation: at 92.2 µM (top of the series)
Method in brief: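 Secreted IL-8 measured by TR-FRET sandwich (cryptate and XL665 antibodies) from THP-1 cells exposed to compound overnight (16 hrs, 37 C).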

[8] = molecular target: Glucocorticoid receptor (Homo sapiens) (UniProt P04150); assay: qHTS assay for small molecule agonists of glucocorticoid receptor signaling (AID 588532; active = well fitted curve in the direction sought with a large enough effect in the signal ratio, with a control signal flat; inconclusive = small, poorly fitted or top-dose-only effect, or a change in a side signal; inactive = no such curve, though single readings can be large or run the other way; the % refers to the signal ratio; also: potency is read from the fitted curve at half-maximal effect); conditions: HeLa MMTV-bla, beta-lactamase ratio, agonist, 18 h; activation: stronger effect = higher value, percent of dexamethasone control, DMSO zero
Method in brief: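 Quantitative HTS using CellSensor MMTV-bla HeLa cells in charcoal/dextran-treated serum; compounds tested up to 92 uM. After 18 h at 37 C, CCF4 dye reported reporter induction.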

[9] = molecular target: Bile acid receptor (Homo sapiens) (UniProt Q96RI1); assay: qHTS assay for small molecule agonists of farnesoid X receptor signaling (AID 588527); conditions: HEK293T FXR-UAS-bla, beta-lactamase ratio, 16 h; activation: stronger effect = higher value; also: potency is read from the fitted curve at half-maximal effect
Method in brief: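 Read-out: beta-lactamase reporter fluorescence with CCF4 substrate in GeneBLAzer FXR-UAS-bla HEK293T cells, after 16 h compound exposure at 37 C. Response scaled between DMSO basal (0%) and chenodeoxycholic acid at 100 uM (100%).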

[10] = Cellular Toxicity (caspase-3) N2a (AID 665; active = well fitted curve in the direction sought with a large enough effect; inconclusive = small, poorly fitted or top-dose-only effect, or another doubt; inactive = no such curve, though single readings can be large; an effect the other way counts as inactive or inconclusive;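 also: compound exposure lasted 16 h at 37 °C before readout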); conditions: N2a cells, luminescence, normalized: DMSO 0%, 10 µM staurosporine 100%; at 92.2 µM (top of the series)
Method in brief: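 Plated mouse neuroblastoma N2a cells received titrated compounds for 16 h in complete medium. Caspase activity was then detected with a peptide-aminoluciferin luminescent reagent.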

[11] = MultiTox-Fluor Cytotoxicity Assay - LYMP1-002 - Dead Cells (AID 960; active = well fitted curve in the direction sought with a large enough effect; inconclusive = small, poorly fitted or top-dose-only effect, or another doubt; inactive = no such curve, though single readings can be large; an effect the other way counts as inactive or inconclusive; also: potency is read from the fitted curve at half-maximal effect; nearly all actives have a fitted effect of over 60% in size); conditions: LYMP1-002 lymphoblastoid cells, dead-cell protease fluorescence; cytotoxicity (dead cells): at 46.1 µM (top of the series)
Method in brief: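 Acute cytotoxicity in a human lymphoblastoid line is scored as rising dead-cell protease signal after 16 hr exposure at 37 C, measured fluorometrically (485/520).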

[12] = Cell Viability - LYMP2-010 (AID 981; active = well fitted curve in the direction sought with a large enough effect; inconclusive = small, poorly fitted or top-dose-only effect, or another doubt; inactive = no such curve, though single readings can be large; an effect the other way counts as inactive or inconclusive;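 also: cells exposed to compound for 24 hours at 37 °C; % is scaled to controls: 0 for no effect and ±100 for the full control effect; nearly all actives have a fitted effect of over 55% in size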)
Method in brief: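 Acute toxicity is scored as a concentration-dependent loss of cellular ATP in human lymphoblastoid cells after 24 hr compound exposure in complete medium. Tetraoctylammonium bromide is the positive control.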

[13] = Cell Viability - LYMP2-018 (AID 985; active = well fitted curve in the direction sought with a large enough effect; inconclusive = small, poorly fitted or top-dose-only effect, or another doubt; inactive = no such curve, though single readings can be large; an effect the other way counts as inactive or inconclusive;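 also: compound exposure lasted 24 hr at 37 °C; plate controls were DMSO only for no effect and tetraoctylammonium bromide at 92 µM for full effect; nearly all actives have a fitted effect of over 50% in size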)
Method in brief: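 Acute cytotoxicity is scored as a concentration-dependent drop in intracellular ATP after 24 hr exposure of the lymphoblastoid line in complete culture medium, measured by luciferase luminescence. Potency is expressed as AC50 from Hill modelling.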

[14] = molecular target: Glucocorticoid receptor (Homo sapiens) (UniProt P04150); assay: qHTS assay for small molecule antagonists of glucocorticoid receptor signaling (AID 588533; active = well fitted inhibition curve with a large enough effect in the signal ratio, with a control signal flat, not every such curve was filed as active; inconclusive = small, poorly fitted or top-dose-only effect, or effect the other way, or a change in a side signal; the % refers to the signal ratio;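 also: cells stimulated with 2 nM dexamethasone as agonist; potency is read from the fitted curve at half-maximal effect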); conditions: HeLa MMTV-bla, GRE beta-lactamase ratio, antagonist mode, 18 h; activity change, negative = inhibition: at 76.8 µM (top of the series) unless noted
[15] = molecular target: Peroxisome proliferator-activated receptor delta (Homo sapiens) (UniProt Q03181); assay: qHTS assay for small molecule agonists of peroxisome proliferator-activated receptor delta signaling (AID 588534); conditions: HEK293T PPARdelta-UAS-bla, beta-lactamase ratio, 18 h; activation: at 76.7 µM (top of the series);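 also: 0% = DMSO basal wells and 100% = positive control agonist at 10 µM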
Method in brief: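 Reporter cells were plated and held 5 hrs at 37 C before compounds were added. After 18 hrs at 37 C, CCF4 dye was loaded for 2 hrs at RT and fluorescence measured.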

[16] = molecular target: Retinoic acid receptor RXR-alpha (Homo sapiens) (UniProt P19793); assay: qHTS assay for small molecule agonists of retinoid X receptor alpha signaling (AID 588544); conditions: HEK293T RXRa-UAS-bla, beta-lactamase reporter, 18 h; activation: at 76.7 µM (top of the series) unless noted; also: potency is read from the fitted curve at half-maximal effect

O=NN(c1ccccc1)c1ccccc1
Potency [1]: inactive | Potency [2]: inactive | Potency [3]: inconclusive: 0.0398 µM [inhibitor, full curve, poor fit] | Potency [4]: inactive | max response [5]: inactive: -2.47% and inactive: 4.6% | Potency [6]: inconclusive: 75 µM [activator, partial curve, poor fit] | activation [6]: inconclusive: 9.4% | Potency [7]: inactive

CN(C)CCCCCCN(C)C
Potency [8]: inconclusive: 0.0009 µM [side channel, falling, full curve, poor fit]

CC(C)(C)C(O)/C(=C\c1ccc(Cl)cc1)n1cncn1 (configuration not stated)
Potency [9]: inconclusive: 0.001 µM [side channel, falling, full curve, poor fit] | Potency [6]: inconclusive: 68.6 µM [activator, partial curve, poor fit]

CC(=O)NNc1ccccc1
caspase-3 activation [10]: inactive: -2.18% | Potency [11]: inconclusive: 10 µM [cytotoxic, partial curve, poor fit] | Potency [12]: inactive | Potency [13]: inactive | Potency [8]: inconclusive: 50.1 µM [side channel, rising, single point] | Potency [14]: inconclusive: 3.55 µM [inhibitor, full curve, poor fit] | activation [15]: inconclusive: -17.5% | Potency [4]: inconclusive: 0.891 µM [inhibitor, full curve, poor fit] | Potency [16]: inconclusive: 15.8 µM [side channel, rising, partial curve, poor fit] | Potency [6]: inconclusive: 33.5 µM [side channel, falling, single point] | Potency [7]: inconclusive: 42.2 µM [falling, single point]

From PubChem BioAssay (NCATS)
